From the supplement of paper PMC10849652
Some of the results follow.

Chains of the proteins cited; added tags and fusions are not shown. Lines headed by an entry give the natural chain unless they say otherwise; changes in a name come on top.
UniProt Q9UMY4: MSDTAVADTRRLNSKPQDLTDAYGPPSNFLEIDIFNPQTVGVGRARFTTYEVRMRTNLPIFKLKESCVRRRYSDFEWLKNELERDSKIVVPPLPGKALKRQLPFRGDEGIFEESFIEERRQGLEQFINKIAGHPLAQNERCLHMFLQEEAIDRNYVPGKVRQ
UniProt Q7Z3B0: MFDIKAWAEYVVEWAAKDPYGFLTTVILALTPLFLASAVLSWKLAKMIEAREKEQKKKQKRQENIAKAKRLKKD
UniProt Q86US8: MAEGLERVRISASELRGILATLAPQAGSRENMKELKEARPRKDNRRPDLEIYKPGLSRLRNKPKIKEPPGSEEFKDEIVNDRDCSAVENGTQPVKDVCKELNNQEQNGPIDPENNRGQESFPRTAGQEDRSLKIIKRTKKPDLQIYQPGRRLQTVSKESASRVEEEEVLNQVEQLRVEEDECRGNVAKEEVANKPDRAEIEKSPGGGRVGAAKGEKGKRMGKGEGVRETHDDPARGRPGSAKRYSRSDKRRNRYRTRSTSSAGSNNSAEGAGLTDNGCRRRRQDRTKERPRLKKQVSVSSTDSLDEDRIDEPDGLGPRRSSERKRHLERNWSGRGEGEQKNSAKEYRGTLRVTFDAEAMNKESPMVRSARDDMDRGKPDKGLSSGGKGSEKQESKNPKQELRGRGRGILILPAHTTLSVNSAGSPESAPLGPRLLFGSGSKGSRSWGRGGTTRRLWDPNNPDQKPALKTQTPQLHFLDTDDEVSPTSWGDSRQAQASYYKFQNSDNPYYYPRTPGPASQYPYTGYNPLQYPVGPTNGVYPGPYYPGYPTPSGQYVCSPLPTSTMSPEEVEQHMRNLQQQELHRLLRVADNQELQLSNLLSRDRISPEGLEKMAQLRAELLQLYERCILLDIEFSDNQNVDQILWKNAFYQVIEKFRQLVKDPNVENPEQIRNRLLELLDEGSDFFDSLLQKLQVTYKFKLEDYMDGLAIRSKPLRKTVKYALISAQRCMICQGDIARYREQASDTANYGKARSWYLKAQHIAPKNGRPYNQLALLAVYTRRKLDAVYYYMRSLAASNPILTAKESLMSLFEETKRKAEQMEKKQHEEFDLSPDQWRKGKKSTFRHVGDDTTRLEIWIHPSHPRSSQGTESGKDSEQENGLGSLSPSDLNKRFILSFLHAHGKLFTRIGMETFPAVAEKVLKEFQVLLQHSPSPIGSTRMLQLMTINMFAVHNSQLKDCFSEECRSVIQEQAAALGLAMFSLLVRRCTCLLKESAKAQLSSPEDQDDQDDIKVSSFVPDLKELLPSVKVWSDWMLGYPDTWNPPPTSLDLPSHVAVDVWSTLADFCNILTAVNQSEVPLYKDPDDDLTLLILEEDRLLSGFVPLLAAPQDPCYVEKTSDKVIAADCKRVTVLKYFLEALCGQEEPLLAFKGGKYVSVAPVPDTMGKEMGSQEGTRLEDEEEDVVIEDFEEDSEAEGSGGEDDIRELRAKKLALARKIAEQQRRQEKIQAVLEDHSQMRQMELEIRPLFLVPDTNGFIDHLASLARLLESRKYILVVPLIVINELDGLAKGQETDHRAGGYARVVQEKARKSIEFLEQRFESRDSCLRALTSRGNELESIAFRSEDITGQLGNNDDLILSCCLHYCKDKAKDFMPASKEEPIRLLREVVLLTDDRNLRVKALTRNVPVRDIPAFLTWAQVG
UniProt Q96SB8: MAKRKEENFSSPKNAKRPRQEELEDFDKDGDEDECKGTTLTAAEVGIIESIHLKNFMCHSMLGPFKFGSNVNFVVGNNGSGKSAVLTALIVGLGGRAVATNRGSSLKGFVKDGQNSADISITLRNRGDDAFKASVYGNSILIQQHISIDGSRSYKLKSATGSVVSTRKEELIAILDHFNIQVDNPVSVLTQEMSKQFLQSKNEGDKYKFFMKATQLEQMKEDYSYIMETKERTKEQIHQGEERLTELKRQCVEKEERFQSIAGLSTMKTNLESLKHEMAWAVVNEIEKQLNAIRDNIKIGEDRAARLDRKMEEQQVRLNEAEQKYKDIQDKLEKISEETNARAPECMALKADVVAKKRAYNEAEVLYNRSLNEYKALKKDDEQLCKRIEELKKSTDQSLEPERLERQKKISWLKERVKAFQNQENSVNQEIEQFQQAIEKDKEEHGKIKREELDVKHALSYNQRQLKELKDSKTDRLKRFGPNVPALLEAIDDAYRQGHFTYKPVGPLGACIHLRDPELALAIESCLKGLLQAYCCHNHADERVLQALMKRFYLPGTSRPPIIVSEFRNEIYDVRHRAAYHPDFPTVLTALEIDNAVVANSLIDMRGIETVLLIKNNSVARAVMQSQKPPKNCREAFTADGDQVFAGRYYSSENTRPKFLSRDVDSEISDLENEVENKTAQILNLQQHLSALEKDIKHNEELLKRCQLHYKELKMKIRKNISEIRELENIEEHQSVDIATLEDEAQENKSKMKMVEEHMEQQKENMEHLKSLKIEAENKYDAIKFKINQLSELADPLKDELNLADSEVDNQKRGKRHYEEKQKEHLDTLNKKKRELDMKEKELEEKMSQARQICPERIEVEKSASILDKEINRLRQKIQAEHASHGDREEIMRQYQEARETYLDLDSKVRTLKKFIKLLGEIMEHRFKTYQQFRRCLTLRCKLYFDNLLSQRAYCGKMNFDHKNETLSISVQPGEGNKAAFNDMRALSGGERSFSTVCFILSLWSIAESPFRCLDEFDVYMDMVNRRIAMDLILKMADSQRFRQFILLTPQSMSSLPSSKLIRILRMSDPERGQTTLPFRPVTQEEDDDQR
UniProt O00161: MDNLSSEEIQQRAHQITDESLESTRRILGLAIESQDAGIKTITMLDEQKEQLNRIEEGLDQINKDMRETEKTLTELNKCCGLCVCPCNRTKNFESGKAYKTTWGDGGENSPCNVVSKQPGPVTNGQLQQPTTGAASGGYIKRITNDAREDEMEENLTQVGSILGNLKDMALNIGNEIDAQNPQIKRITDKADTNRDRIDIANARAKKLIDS
UniProt P00441, whole entry, looked up: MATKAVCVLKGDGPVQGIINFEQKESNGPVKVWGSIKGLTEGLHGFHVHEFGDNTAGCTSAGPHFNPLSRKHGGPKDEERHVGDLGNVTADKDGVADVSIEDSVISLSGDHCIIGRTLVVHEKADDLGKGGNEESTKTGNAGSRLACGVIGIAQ
UniProt P62318, whole entry, looked up: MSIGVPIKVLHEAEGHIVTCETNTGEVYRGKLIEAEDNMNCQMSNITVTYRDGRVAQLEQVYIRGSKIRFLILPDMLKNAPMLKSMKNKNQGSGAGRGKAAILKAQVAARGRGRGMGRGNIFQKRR
UniProt Q3SY56: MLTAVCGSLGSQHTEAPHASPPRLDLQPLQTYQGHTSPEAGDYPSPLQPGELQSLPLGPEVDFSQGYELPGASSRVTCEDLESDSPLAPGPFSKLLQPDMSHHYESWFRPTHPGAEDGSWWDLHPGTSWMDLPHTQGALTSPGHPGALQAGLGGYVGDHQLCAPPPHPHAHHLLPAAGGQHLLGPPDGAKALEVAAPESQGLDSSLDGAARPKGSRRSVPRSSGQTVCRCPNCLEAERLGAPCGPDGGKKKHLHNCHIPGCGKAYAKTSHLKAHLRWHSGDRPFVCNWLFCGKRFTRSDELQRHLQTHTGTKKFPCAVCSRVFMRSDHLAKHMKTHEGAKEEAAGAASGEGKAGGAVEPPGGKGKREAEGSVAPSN
UniProt Q5VWJ9: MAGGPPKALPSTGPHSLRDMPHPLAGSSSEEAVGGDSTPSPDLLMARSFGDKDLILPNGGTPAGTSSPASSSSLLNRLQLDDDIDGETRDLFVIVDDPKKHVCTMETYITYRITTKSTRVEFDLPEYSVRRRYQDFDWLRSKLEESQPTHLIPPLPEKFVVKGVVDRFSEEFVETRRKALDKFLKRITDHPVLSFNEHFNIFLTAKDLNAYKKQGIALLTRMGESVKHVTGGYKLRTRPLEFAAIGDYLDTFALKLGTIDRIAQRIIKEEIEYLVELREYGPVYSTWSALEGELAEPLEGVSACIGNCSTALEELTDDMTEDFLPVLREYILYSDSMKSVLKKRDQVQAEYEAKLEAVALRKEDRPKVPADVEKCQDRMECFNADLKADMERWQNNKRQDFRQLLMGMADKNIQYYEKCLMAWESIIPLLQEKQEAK
UniProt P58511: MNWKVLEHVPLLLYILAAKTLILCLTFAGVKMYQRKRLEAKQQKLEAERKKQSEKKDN
UniProt P08294: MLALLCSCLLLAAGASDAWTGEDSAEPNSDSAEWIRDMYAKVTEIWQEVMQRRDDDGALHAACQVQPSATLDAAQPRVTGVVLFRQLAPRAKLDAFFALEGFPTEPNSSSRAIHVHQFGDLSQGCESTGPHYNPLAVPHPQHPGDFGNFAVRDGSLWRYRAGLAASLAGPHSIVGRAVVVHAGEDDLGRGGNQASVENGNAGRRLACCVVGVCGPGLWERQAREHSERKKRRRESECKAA
UniProt Q9H4I9: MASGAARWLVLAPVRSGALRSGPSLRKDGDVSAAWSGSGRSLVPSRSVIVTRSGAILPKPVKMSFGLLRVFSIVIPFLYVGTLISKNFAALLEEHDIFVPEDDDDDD
UniProt O60906: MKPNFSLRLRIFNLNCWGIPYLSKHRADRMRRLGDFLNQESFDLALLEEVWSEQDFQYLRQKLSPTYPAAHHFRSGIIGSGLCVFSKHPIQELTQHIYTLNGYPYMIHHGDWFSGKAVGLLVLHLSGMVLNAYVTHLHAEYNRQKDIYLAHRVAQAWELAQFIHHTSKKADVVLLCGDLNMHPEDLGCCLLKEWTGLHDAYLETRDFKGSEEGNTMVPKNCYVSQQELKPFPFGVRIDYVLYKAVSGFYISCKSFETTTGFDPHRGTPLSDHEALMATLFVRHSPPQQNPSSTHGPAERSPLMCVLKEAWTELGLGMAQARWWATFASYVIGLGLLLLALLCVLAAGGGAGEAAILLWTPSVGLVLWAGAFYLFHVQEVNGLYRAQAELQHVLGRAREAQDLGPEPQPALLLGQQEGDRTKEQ
UniProt P0DJ93: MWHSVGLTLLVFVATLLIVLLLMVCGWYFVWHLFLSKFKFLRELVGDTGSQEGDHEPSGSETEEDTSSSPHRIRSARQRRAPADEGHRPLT
UniProt Q92543: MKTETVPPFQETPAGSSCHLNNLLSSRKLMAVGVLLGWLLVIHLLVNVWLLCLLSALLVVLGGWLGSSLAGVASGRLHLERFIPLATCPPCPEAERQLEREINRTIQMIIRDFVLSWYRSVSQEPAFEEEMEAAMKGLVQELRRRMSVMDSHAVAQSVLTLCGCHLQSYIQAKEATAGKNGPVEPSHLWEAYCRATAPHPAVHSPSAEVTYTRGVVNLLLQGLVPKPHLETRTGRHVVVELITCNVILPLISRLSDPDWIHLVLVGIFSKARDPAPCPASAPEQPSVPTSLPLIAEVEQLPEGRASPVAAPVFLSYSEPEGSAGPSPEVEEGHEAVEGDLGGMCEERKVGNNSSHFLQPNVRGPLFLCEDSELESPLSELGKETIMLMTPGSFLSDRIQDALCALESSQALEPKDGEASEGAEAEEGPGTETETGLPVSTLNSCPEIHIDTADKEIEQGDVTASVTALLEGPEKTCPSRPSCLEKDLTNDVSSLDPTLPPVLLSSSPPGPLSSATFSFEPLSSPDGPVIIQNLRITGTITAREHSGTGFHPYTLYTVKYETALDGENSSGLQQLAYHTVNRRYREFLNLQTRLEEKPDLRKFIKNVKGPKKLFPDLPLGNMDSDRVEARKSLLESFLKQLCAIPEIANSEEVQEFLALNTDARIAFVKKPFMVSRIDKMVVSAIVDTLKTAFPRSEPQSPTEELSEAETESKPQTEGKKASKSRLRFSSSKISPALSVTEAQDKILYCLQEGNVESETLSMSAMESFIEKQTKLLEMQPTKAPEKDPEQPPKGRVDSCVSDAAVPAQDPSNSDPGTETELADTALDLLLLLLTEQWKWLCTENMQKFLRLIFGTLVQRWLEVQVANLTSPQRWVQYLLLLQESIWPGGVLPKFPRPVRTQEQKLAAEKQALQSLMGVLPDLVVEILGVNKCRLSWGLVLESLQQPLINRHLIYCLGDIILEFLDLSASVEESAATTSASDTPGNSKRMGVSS
UniProt P17405: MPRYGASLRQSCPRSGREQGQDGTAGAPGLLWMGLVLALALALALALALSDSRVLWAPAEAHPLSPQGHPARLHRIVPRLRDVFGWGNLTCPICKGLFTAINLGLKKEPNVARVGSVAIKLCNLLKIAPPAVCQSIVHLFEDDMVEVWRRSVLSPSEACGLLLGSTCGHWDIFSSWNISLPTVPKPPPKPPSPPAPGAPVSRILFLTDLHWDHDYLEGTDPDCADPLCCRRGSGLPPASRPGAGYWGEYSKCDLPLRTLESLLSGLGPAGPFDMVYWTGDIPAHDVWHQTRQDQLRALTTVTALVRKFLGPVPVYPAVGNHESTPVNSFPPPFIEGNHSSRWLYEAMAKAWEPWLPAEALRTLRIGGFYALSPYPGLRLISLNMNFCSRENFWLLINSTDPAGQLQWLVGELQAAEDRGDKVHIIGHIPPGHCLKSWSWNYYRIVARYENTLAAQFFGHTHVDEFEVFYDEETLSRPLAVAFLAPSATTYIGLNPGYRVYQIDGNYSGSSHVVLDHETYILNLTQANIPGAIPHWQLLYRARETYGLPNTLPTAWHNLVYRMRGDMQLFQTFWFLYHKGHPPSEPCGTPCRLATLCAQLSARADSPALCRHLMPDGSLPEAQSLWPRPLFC

Key:
Assay in all cases: log2 fold change, soluble protein after heating vs DMSO (PISA); higher = thermal stabilisation; K562 lysate, 10 uM; active = over 0.2 and 3.5 SD of the protein, either way, in both replicates (recomputed)
[1] = compound: NCC(=O)Nc1ccc(-n2nc(C(F)(F)F)cc2-c2ccc3c(ccc4ccccc43)c2)cc1
Procedure, shortened: (§1)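 To prepare the extract, K562 pellets were dounce-homogenised in PBS pH 7.4 with 1 mM MgCl2, giving crude material at 1 mg/mL protein. This was treated with 10 μM compound for 30 min, then heated in aliquots for 3 min over 48°C-58°C before pooling and addition of NP-40 to 0.5% at 4°C. Centrifugation at 21,000xg for 90 min left soluble protein in the supernatant, which TMTpro 16plex LC-MS/MS quantified with equalised channel sums. Results are log-two fold changes in thermal stability compared with solvent controls, from duplicates.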

vorinostat = compound: O=C(CCCCCCC(=O)Nc1ccccc1)NO [vorinostat]
Procedure, shortened: as §1

silmitasertib = compound: O=C(O)c1ccc2c(c1)nc(Nc1cccc(Cl)c1)c1ccncc12 [silmitasertib]
Procedure, shortened: as §1

[2] = compound: O=C1NC(=O)C(c2cnc3ccccn23)=C1c1cn2c3c(cc(F)cc13)CN(C(=O)N1CCCCC1)CC2
Procedure, shortened: as §1

entospletinib = compound: c1cn2cc(-c3ccc4cn[nH]c4c3)nc(Nc3ccc(N4CCOCC4)cc3)c2n1 [entospletinib]
Procedure, shortened: as §1

Target | log2 fold change [1] | log2 fold change (vorinostat) | log2 fold change (silmitasertib) | log2 fold change [2] | log2 fold change (entospletinib)
SNRPD2 (UniProt K7EJB5) | inactive: 0.119 | active: 0.493 | inactive: 0.056 | inactive: -0.1 | inactive: -0.004
SNX12 isoform 1 (UniProt Q9UMY4) | inactive: 0.017 | inactive: 0.046 | inactive: 0.009 | inactive: 0 | inactive: 0.01
SMUG1 (UniProt Q53HV7) | inactive: -0.004 | inactive: -0.191 | inactive: -0.001 | – | inactive: -0.004
SMN1 (UniProt Q16637) | inactive: -0.014 | active: -0.278 | inactive: 0.035 | inactive: 0.052 | inactive: -0.024
SMARCB1 (UniProt Q12824) | inactive: -0.001 | inactive: -0.225 | inactive: 0.067 | inactive: -0.039 | inactive: 0.016
SNRNP27 (UniProt Q8WVK2) | inactive: 0.034 | inactive: 0.08 | inactive: -0.021 | inactive: -0.097 | inactive: -0.033
SNRPE (UniProt P62304) | inactive: 0.063 | inactive: 0.057 | inactive: -0.033 | inactive: 0.024 | inactive: -0.034
SORT1 (UniProt Q99523) | inactive: -0.018 | inactive: 0.095 | inactive: 0.011 | inactive: -0.006 | inactive: -0.006
SMARCAL1 (UniProt Q9NZC9) | inactive: -0.011 | inactive: -0.211 | inactive: -0.006 | inactive: 0.005 | inactive: -0.026
SMNDC1 (UniProt O75940) | inactive: 0.041 | inactive: -0.045 | inactive: -0.026 | inactive: -0.037 | inactive: -0.016
SMIM15 (UniProt Q7Z3B0) | inactive: -0.041 | inactive: 0.18 | inactive: -0.061 | inactive: -0.061 | inactive: 0.045
SNAP91 (UniProt O60641) | inactive: -0.171 | inactive: 0.046 | inactive: 0.018 | inactive: -0.025 | inactive: 0.001
SNRNP70 (UniProt P08621) | inactive: -0.029 | inactive: 0.033 | inactive: 0.004 | inactive: -0.009 | inactive: 0.022
SNX3 (UniProt O60493) | inactive: -0.066 | inactive: -0.05 | inactive: 0.029 | inactive: -0.07 | inactive: -0.002
SNRPC (UniProt Q5TAL2) | inactive: 0.068 | inactive: 0.14 | inactive: -0.047 | inactive: 0.083 | inactive: -0.055
SNX4 (UniProt O95219) | inactive: 0 | inactive: 0.008 | inactive: 0.04 | inactive: 0.075 | inactive: -0.029
SMG6 (UniProt Q86US8) | inactive: 0.119 | active: -0.3 | inactive: 0.015 | inactive: -0.012 | inactive: 0.024
SNX27 (UniProt Q96L92) | inactive: -0.015 | inactive: -0.152 | inactive: 0.022 | inactive: 0.029 | inactive: 0.012
SMC6 (UniProt Q96SB8) | inactive: -0.006 | active: -0.245 | inactive: -0.022 | inactive: 0.019 | inactive: -0.013
SNRPA (UniProt P09012) | inactive: 0.019 | inactive: 0.156 | inactive: -0.018 | inactive: 0.001 | inactive: -0.003
SON isoform 9 (UniProt P18583) | inactive: -0.004 | inactive: 0.043 | inactive: -0.062 | inactive: 0.037 | inactive: -0.055

Only log2 fold change [1], for some of the entries so far:
Target,log2 fold change [1]
SNX27 (UniProt Q96L92),inactive: -0.015
SMC6 (UniProt Q96SB8),inactive: -0.006

Additional records follow.

Target | log2 fold change [1] | log2 fold change (vorinostat) | log2 fold change (silmitasertib) | log2 fold change [2] | log2 fold change (entospletinib)
SMG1 (UniProt Q96Q15) | inactive: 0.005 | active: -0.348 | inactive: 0.011 | inactive: -0.006 | inactive: -0.007
SNX15 (UniProt Q9NRS6) | inactive: 0.002 | inactive: -0.104 | inactive: 0.03 | inactive: 0.005 | inactive: -0.02
SMG9 (UniProt Q9H0W8) | inactive: -0.03 | inactive: -0.089 | inactive: -0.011 | inactive: 0 | inactive: -0.069
SPAG9 (UniProt O60271) | inactive: 0.011 | inactive: 0.113 | inactive: -0.021 | inactive: -0.002 | inactive: -0.024
SNX14 (UniProt Q9Y5W7) | inactive: -0.009 | inactive: 0.281 | inactive: -0.185 | inactive: 0.372 | inactive: -0.001
SNX5 (UniProt Q9Y5X3) | inactive: 0.016 | inactive: -0.029 | inactive: 0.007 | inactive: -0.055 | inactive: 0.01
SNAP23 isoform 2 (UniProt O00161) | inactive: 0.146 | active: -0.85 | inactive: -0.028 | – | inactive: -0.329
SMARCC2 (UniProt Q8TAQ2) | inactive: -0.026 | inactive: -0.146 | inactive: 0.003 | inactive: 0.013 | inactive: -0.019
SMCHD1 (UniProt A6NHR9) | inactive: 0 | inactive: -0.149 | inactive: 0.02 | inactive: 0.02 | inactive: 0.007
SMU1 isoform 2 (UniProt Q2TAY7) | inactive: 0.25 | inactive: -0.063 | inactive: 0.022 | – | inactive: 0.074
SOD1 (UniProt P00441) | inactive: -0.038 | inactive: 0.092 | inactive: -0.024 | inactive: -0.105 | inactive: -0.049
SORBS3 (UniProt O60504) | inactive: -0.122 | active: -0.561 | inactive: 0.057 | inactive: 0.031 | inactive: 0.01
SNRPD1 (UniProt P62314) | inactive: 0.027 | inactive: 0.162 | inactive: -0.076 | inactive: 0.047 | inactive: -0.022
SNRPD3 (UniProt P62318) | inactive: -0.011 | inactive: 0.12 | inactive: -0.023 | inactive: 0.008 | inactive: -0.027
SP6 (UniProt Q3SY56) | inactive: -0.095 | inactive: 0.044 | inactive: -0.099 | inactive: -0.061 | inactive: -0.031
SNF8 (UniProt Q96H20) | inactive: 0.005 | inactive: 0.079 | inactive: 0.004 | inactive: -0.012 | inactive: -0.008
SORBS1 isoform 8 (UniProt Q9BX66) | inactive: 0.002 | inactive: 0.101 | inactive: 0.014 | inactive: -0.001 | inactive: -0.037
SNX30 (UniProt Q5VWJ9) | – | inactive: 0.087 | inactive: 0.016 | inactive: -0.149 | –
SNAPC2 (UniProt Q13487) | – | active: -0.631 | inactive: -0.122 | inactive: -0.086 | –
SMIM11A (UniProt P58511) | inactive: -0.032 | – | – | inactive: -0.029 | inactive: 0.123
SOD3 (UniProt P08294) | inactive: 0.003 | – | – | – | inactive: 0.028

Quoted at random: four records from the list, in no set order.
Target | log2 fold change [1] | log2 fold change (vorinostat) | log2 fold change (silmitasertib) | log2 fold change [2] | log2 fold change (entospletinib)
SPAG9 (UniProt O60271) | inactive: 0.011 | inactive: 0.113 | inactive: -0.021 | inactive: -0.002 | inactive: -0.024
SMU1 isoform 2 (UniProt Q2TAY7) | inactive: 0.25 | inactive: -0.063 | inactive: 0.022 | – | inactive: 0.074
SNRPD3 (UniProt P62318) | inactive: -0.011 | inactive: 0.12 | inactive: -0.023 | inactive: 0.008 | inactive: -0.027
SNX5 (UniProt Q9Y5X3) | inactive: 0.016 | inactive: -0.029 | inactive: 0.007 | inactive: -0.055 | inactive: 0.01

(list continues)

Target | log2 fold change [1] | log2 fold change (vorinostat) | log2 fold change (silmitasertib) | log2 fold change [2] | log2 fold change (entospletinib)
SMR3B (UniProt P02814) | – | – | – | inactive: 0.12 | inactive: -0.536
SMDT1 (UniProt Q9H4I9) | – | inactive: 0.04 | inactive: -0.073 | – | –
SNAPC3 (UniProt Q92966) | – | inactive: -0.382 | inactive: -0.105 | inactive: -0.003 | inactive: -0.106
SNX25 (UniProt Q9H3E2) | – | inactive: -0.178 | inactive: 0.013 | inactive: -0.054 | inactive: -0.001
SMYD4 (UniProt Q8IYR2) | – | inactive: -0.018 | inactive: -0.166 | inactive: 0.115 | –
SMPD2 (UniProt O60906) | – | inactive: 0.261 | active: -1.47 | – | inactive: 0.058
SMIM13 (UniProt P0DJ93) | – | inactive: 0.205 | inactive: -0.041 | inactive: -0.015 | –
SP2 (UniProt Q02086) | – | – | – | inactive: 0.067 | inactive: 0.057
SMIM4 (UniProt Q8WVI0) | – | – | – | inactive: -0.091 | –
SNAPC1 (UniProt Q16533) | – | – | – | inactive: 0.083 | –
SPAG1 (UniProt Q07617) | inactive: 0.227 | – | – | inactive: -0.061 | –
SNX19 (UniProt Q92543) | – | inactive: -0.182 | inactive: 0.038 | inactive: 0.073 | inactive: -0.029
SMPD1 (UniProt P17405) | – | inactive: 0.073 | inactive: 0.02 | inactive: -0.052 | –
SOX12 (UniProt O15370) | inactive: -0.023 | – | – | inactive: 0.004 | –
SNX10 (UniProt Q9Y5X0) | – | inactive: -0.057 | inactive: 0.001 | inactive: 0.117 | –
SNX24 (UniProt Q9Y343) | – | inactive: 0.059 | inactive: 0.019 | inactive: -0.083 | inactive: -0.006
SPA17 (UniProt Q15506) | inactive: 0.049 | – | – | inactive: 0.022 | inactive: -0.025
SOX11 (UniProt P35716) | inactive: 0.007 | – | – | inactive: 0.158 | –
SNAPC4 (UniProt Q5SXM2) | inactive: 0.13 | – | – | – | inactive: -0.066
SMPDL3A (UniProt Q92484) | inactive: 0.112 | – | – | – | inactive: -0.026
SMIM1 (UniProt B2RUZ4) | – | inactive: 0.177 | inactive: -0.076 | inactive: 0.12 | inactive: 0.042
